Results reported in article PMC7819943, “Rice protein-binding microarrays: a tool to detect cis-acting elements near promoter regions in rice”.
The other results are listed elsewhere or left out.

These sequences were tested against T1, OsSMF1 (Oryza sativa, UniProt Q6ZLB0 1-436) (assay: protein-binding microarray (RPBM); PBS, 2% BSA, 51.3 ng/ul salmon testes DNA, 50 uM zinc acetate, 200 nM TF, 25 C, 1 h; high values mean tight binding). Conditions: protein: recombinant; tags: N-terminal polyhistidine and DsRed monomer fusion (pET32a); chain copies: 2; label: CyDye5-dUTP incorporated in the synthesized complementary strand; 3' TTTTT single-stranded linker to array surface; dsDNA, one strand shown.
T1 sequence: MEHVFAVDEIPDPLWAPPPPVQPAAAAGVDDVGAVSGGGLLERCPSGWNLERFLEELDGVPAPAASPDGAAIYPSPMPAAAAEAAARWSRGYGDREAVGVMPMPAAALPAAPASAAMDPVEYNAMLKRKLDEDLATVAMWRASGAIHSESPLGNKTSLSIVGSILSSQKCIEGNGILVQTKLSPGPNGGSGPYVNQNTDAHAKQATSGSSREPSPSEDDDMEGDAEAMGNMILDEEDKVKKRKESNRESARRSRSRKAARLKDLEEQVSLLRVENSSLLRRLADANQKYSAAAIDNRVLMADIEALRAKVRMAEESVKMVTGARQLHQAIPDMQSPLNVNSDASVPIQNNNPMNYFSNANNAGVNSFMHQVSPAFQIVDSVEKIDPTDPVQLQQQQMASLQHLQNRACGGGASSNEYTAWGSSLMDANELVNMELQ
Outline: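 The binding signal is fluorescence intensity per array feature (arbitrary units). Readings came from an Axon 4000B scanner after a washed, 2% BSA-blocked, double-stranded custom Agilent array had been incubated for 1 h at 25 °C with 200 nM protein and 50 µM zinc acetate. The protein was a Ni–NTA-purified transcription factor fused N-terminally to polyhistidine and DsRed, expressed in E. coli BL21-CodonPlus.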

Sequence	binding signal
TAATAATACATGATAATTAATTAGCTACGTCCTTGTCAAACGGAGTCACCTAGTGCAG	5260 fluorescence intensity (a.u.)
TCCTCTCATCCTATTTTCTGTGTGCATTGTGTCTGTGACACGGAGTCACCTAGTGCAG	3190 fluorescence intensity (a.u.)
GTCTTCTTGGGCGTAGAGCCAGCTATCTATCAGCCACCGCCGGAGTCACCTAGTGCAG	3350 fluorescence intensity (a.u.)
CACCTGTCATACACACACAATGTCTTGGAGTCCGTGCTGCCGGAGTCACCTAGTGCAG	3320 fluorescence intensity (a.u.)
CCGATATGATGCAGCAGCTCCGACTCCACCTTAACACTAACGGAGTCACCTAGTGCAG	3570 fluorescence intensity (a.u.)
GATCACGAACTGGGCGCCCACGATCCAAGCCGGGTCGCGACGGAGTCACCTAGTGCAG	3210 fluorescence intensity (a.u.)
GAATGTATTAAAATCAGACGTTGTTTGATTAGTTATAGAACGGAGTCACCTAGTGCAG	30100 fluorescence intensity (a.u.)
CGACGACTCGTCTCCTTCCTCGTCATCTCCAAGTTCACCACGGAGTCACCTAGTGCAG	3730 fluorescence intensity (a.u.)
CAGTCTCAAATTATGGGGTGCCCTCTTTTCGAGGAAAATTCGGAGTCACCTAGTGCAG	3960 fluorescence intensity (a.u.)
TTCTTTGGGTTTGGGACACACTCATATACGCGTGTTCATGCGGAGTCACCTAGTGCAG	20400 fluorescence intensity (a.u.)
AAGCCTGGTATGAATCTGGCCGGGACTGACGTGCCAACTCCGGAGTCACCTAGTGCAG	4480 fluorescence intensity (a.u.)
AAGGGAGTCCGCGGCCCGCCGTCGACGCCGCGTGGTCGGCCGGAGTCACCTAGTGCAG	3620 fluorescence intensity (a.u.)
TAACAATATAAGATTCGACTATACATGTCAGCTTACTATGCGGAGTCACCTAGTGCAG	5130 fluorescence intensity (a.u.)
ATTGGAGATGATGTGACTGAAAAGTTGTGTGTGTATGACACGGAGTCACCTAGTGCAG	3620 fluorescence intensity (a.u.)
TTAATACTCACCACAAATGACACAAAATACGAGTTTTCGGCGGAGTCACCTAGTGCAG	15800 fluorescence intensity (a.u.)
ACCCGTACCTGTCCAGCCACGTTTGGCGTAACACCTGAACCGGAGTCACCTAGTGCAG	3850 fluorescence intensity (a.u.)
AGCACGCATACCACGCGCGGTTCCATGTCCCCACGTGTTGCGGAGTCACCTAGTGCAG	5590 fluorescence intensity (a.u.)
TGGCGGTGAAGCACTGAAGCGTGAGATACCTAAATTGTGCCGGAGTCACCTAGTGCAG	3360 fluorescence intensity (a.u.)
AAATGGGTCCCACACGGACATCCTACCCCACCTGTCACCACGGAGTCACCTAGTGCAG	3250 fluorescence intensity (a.u.)
AATGAAATCCTTTAAAATTTCTATGTATTTCCTTTGAATCCGGAGTCACCTAGTGCAG	33600 fluorescence intensity (a.u.)
TAATGCTGAATTGTAGCTGCATCAAGCCATCAACTCATACCGGAGTCACCTAGTGCAG	21600 fluorescence intensity (a.u.)

Sequence	binding signal
TGGCTATATCTTGGGGTACCCGTTGCAATTAGCACGCTCTCGGAGTCACCTAGTGCAG	30900 fluorescence intensity (a.u.)
GAGGTCAACGCAACGATTAAAACCCGCGCGAGCGAGCGCACGGAGTCACCTAGTGCAG	28700 fluorescence intensity (a.u.)
GTTCCAGCCCCAATTCCCTCTTGACGTCGTACCTTCTCCCCGGAGTCACCTAGTGCAG	3260 fluorescence intensity (a.u.)
GCGCAAGCCCAGCCGCCTCGTCGTGTTCGCGTTCGTCGCGCGGAGTCACCTAGTGCAG	3690 fluorescence intensity (a.u.)
ACTCCGACGGTGGCGCCACCATGATTTGGGTTCTTGCTGACGGAGTCACCTAGTGCAG	5070 fluorescence intensity (a.u.)
CTTTTGGCAAAATCCGTGATGCAGCATCGATCCCTGTCAACGGAGTCACCTAGTGCAG	39800 fluorescence intensity (a.u.)
CAGCGACATGGTCTCTAAAATACAACTTTGACTTCTTATTCGGAGTCACCTAGTGCAG	26700 fluorescence intensity (a.u.)
CGCCAAGTCTTCGAGGGCCCCACCTGTCAGCCGTGGACCCCGGAGTCACCTAGTGCAG	17900 fluorescence intensity (a.u.)
CGGTGCGGTGGAGGTTGGACAATGTGACGAAACCAGCGCTCGGAGTCACCTAGTGCAG	3270 fluorescence intensity (a.u.)
TTTCGATTTCGATCTCCATCGATCATTTCGGTTCAGGTTTCGGAGTCACCTAGTGCAG	4310 fluorescence intensity (a.u.)
GCGACCGCGATTTCATCCTATCCATCTACCGCAATGTTCGCGGAGTCACCTAGTGCAG	3150 fluorescence intensity (a.u.)
GCTCACGCCCTTTGCCTTGGCCACACGCCAGCGAATGACCCGGAGTCACCTAGTGCAG	3260 fluorescence intensity (a.u.)
CCATTCCGCCTCTCTCGGCCGGTCTCTCCTCGCGGGATAGCGGAGTCACCTAGTGCAG	3540 fluorescence intensity (a.u.)
AGTTGTTCTTCTCAGCAGGTTGCTGTCATCTTAGACTTTTCGGAGTCACCTAGTGCAG	4480 fluorescence intensity (a.u.)
CGCCGCCTCGTCACCGACCCCGCCTTCCACCGCCGCTTCCCGGAGTCACCTAGTGCAG	10400 fluorescence intensity (a.u.)
ATTAATGGCCTTGATTCTACCTATAGCTCAACAAATGGTTCGGAGTCACCTAGTGCAG	24300 fluorescence intensity (a.u.)
TTTAGATACCATCTTATTGCACATATTTGCAATATCCAAACGGAGTCACCTAGTGCAG	3260 fluorescence intensity (a.u.)
AAGGTTCTAGATGCAGTGAAATCAAGTGTGAAAAGTGGGGCGGAGTCACCTAGTGCAG	3160 fluorescence intensity (a.u.)
TTAGCCGGATACACTCATCCAGCATCTTCGTGGAATATTCCGGAGTCACCTAGTGCAG	3260 fluorescence intensity (a.u.)
GGTTTTATATAGTTTAGGGGTGAAGATTTCTGATTTTGTGCGGAGTCACCTAGTGCAG	3370 fluorescence intensity (a.u.)
GCAAAAGGAAATATATGCACCTTGTCGGGTCATCGTGGCTCGGAGTCACCTAGTGCAG	4260 fluorescence intensity (a.u.)

Retrieved one by one from the list above (2):
Sequence	binding signal
TTAGCCGGATACACTCATCCAGCATCTTCGTGGAATATTCCGGAGTCACCTAGTGCAG	3260 fluorescence intensity (a.u.)
TTTCGATTTCGATCTCCATCGATCATTTCGGTTCAGGTTTCGGAGTCACCTAGTGCAG	4310 fluorescence intensity (a.u.)
